Laboratory results from article PMC10647343.
No constants are given. Whether binding was seen depends on the method and setting. Binding seen in cells or lysates may run through a third protein. Some entries that bind do so weakly or less than the wild type.

Amino acid sequences for entries named in this document (tags omitted). A change or cut given only in a name is not applied to a line headed by its entry. Chains listed by the source or under a name are the forms on record and can include a tag or linker.
UniProt P14618: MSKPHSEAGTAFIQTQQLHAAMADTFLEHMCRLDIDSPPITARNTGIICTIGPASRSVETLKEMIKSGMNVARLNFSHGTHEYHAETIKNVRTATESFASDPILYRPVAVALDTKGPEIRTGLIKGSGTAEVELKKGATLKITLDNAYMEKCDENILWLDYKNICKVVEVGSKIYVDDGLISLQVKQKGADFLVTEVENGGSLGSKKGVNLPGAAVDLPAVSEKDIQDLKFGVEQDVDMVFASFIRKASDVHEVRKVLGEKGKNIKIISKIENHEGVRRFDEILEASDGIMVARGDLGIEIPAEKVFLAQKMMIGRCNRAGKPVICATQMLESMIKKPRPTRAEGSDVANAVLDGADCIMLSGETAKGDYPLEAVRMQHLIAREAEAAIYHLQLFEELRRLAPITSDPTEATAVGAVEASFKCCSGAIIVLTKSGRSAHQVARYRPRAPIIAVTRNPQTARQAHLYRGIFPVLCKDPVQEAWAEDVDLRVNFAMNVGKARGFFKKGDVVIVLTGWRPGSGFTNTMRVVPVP
Pyruvate kinase M1 (human (endogenous in HeLa)) (P14618, form named): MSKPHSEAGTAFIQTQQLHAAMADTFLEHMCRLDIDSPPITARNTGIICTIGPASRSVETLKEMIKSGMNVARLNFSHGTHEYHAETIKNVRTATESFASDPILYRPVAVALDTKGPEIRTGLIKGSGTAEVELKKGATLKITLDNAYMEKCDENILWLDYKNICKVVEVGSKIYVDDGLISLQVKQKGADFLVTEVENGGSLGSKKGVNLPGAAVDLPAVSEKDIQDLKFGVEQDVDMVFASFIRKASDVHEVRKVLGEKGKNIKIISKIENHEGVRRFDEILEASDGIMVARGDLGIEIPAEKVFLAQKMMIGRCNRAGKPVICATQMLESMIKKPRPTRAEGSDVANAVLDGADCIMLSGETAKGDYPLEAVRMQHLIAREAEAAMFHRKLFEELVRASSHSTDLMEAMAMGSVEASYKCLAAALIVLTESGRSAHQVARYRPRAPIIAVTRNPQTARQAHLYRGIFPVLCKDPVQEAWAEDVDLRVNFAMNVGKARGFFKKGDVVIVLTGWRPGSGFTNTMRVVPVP
UniProt Q14573: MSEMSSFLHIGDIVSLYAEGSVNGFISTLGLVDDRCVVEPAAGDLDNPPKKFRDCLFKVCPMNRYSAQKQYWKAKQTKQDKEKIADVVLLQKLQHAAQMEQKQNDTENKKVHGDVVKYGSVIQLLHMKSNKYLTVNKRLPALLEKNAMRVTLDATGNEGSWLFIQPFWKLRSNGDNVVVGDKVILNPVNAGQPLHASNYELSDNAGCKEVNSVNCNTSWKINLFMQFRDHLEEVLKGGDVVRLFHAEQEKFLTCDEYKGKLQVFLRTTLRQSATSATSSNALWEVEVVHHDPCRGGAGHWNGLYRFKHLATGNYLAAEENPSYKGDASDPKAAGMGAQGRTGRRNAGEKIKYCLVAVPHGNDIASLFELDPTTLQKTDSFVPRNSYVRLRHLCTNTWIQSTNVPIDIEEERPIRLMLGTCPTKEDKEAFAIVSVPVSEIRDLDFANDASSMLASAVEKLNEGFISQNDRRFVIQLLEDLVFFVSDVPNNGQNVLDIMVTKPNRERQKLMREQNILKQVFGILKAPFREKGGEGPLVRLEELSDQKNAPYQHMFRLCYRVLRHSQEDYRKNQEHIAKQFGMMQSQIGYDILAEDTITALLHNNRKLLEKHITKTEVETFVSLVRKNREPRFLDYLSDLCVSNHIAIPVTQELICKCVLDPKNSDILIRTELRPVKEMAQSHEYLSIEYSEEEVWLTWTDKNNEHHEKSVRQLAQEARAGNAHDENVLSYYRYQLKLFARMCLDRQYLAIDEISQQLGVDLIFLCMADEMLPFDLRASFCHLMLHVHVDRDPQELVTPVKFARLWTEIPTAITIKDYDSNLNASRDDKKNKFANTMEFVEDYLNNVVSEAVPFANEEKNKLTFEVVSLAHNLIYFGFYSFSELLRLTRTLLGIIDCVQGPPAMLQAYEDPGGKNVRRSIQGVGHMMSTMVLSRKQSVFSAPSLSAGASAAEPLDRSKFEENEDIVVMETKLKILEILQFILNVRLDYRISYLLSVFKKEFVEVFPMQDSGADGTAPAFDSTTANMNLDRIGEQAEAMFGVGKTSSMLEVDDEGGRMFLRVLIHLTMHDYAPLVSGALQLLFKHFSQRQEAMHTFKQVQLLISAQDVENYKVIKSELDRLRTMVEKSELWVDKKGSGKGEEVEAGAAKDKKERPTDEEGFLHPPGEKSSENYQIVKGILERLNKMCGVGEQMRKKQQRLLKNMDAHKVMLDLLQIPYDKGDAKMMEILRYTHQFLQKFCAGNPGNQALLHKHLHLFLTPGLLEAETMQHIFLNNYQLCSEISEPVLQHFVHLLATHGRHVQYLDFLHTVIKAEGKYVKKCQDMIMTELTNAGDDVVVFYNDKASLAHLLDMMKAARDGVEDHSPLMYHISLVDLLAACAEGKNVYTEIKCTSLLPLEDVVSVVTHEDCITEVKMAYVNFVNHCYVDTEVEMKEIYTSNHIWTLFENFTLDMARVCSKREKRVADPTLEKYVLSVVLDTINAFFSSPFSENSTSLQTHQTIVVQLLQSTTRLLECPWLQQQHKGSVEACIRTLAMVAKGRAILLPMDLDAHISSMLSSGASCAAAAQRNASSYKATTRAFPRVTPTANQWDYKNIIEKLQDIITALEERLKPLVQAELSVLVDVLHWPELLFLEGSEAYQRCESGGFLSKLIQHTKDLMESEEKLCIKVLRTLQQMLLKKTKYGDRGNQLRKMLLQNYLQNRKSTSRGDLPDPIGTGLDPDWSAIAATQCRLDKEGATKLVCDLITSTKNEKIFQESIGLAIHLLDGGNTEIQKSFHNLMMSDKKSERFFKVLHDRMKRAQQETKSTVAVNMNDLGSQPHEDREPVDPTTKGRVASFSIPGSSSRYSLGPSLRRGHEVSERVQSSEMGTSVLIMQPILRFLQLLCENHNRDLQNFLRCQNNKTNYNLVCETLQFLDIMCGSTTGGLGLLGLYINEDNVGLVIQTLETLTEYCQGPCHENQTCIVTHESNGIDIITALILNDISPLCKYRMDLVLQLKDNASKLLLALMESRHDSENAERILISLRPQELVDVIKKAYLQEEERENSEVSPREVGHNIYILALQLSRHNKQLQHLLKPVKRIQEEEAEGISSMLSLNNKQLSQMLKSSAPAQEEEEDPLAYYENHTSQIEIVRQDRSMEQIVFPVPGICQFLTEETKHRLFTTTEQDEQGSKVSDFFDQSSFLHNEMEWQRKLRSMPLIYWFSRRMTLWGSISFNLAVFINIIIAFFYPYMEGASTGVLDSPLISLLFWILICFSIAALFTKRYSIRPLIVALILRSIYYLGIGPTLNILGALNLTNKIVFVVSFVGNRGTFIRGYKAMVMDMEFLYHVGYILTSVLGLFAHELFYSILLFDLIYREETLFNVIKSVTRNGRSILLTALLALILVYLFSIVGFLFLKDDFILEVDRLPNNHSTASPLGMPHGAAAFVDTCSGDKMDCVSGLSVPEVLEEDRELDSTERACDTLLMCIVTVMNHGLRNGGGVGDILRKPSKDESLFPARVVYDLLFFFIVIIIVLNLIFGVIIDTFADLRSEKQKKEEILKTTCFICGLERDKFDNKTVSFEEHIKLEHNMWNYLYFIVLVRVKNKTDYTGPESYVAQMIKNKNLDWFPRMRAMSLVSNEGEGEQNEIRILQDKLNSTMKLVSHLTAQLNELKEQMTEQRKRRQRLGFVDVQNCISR

Assays:
[1] = target: Pyruvate kinase M2 (human (endogenous in HeLa)) (UniProt P14618); assay: co-IP; Dynabeads pre-coated with 0.6 µg anti-PKM2 antibody (Cell Signaling Cat. 4053) or normal rabbit control IgG; lysates of HeLa WT and PKM2 KO cells (CHAPS lysis buffer, 1.0 mg in 1 mL) incubated with Ctrl or D5SD peptide (200 µM), overnight at 4 °C; Western blot for IP3R1, IP3R3, PKM1, PKM2
[2] = target: Pyruvate kinase M1 (human (endogenous in HeLa)) (UniProt P14618); assay: co-IP; competition: D5SD peptide (200 µM; Ctrl peptide as control) added to HeLa WT or PKM2 KO lysate for at least 1 h at 4 °C before immunoprecipitation with anti-PKM2 antibody; loss of IP3R from the precipitate read by Western blot; only the binder purified
[3] = target: Pyruvate kinase M2 (human (endogenous in HeLa)) (UniProt P14618); assay: as above

binding [1]	binding [2]	binding [3]	Molecule
binds	–	–	Inositol 1,4,5-trisphosphate receptor type 3 (from UniProt Q14573 1-2671)
–	binds	binds	KKRMDLVLELKNNASKLLLAI (peptide, UniProt P11881 2078-2098) [D5SD peptide]
